Assay results reported in paper PMC6755085, “Cyclic oligoadenylate signalling mediates Mycobacterium tuberculosis CRISPR defence” (Nucleic Acids Research, 2019).
Results are given in words; binding and its absence hold for the method and conditions named. Binding seen in cells or lysates may run through a third protein. Binding calls can cover weak binding; strength is not graded here. Sequences can lack the tags named with a protein.

Molecular target: T1, Mycobacterium tuberculosis Csm4 (Cas5), His8-V5-tagged (Mycobacterium tuberculosis) (UniProt P9WJF6)
T1 sequence: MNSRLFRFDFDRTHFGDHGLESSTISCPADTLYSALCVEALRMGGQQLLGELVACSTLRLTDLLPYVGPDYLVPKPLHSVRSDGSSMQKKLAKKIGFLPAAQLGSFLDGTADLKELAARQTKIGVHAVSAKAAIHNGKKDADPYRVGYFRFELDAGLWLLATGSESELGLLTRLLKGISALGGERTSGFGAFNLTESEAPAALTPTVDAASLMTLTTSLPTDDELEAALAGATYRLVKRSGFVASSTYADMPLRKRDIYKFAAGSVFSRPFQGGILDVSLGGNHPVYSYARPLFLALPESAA
Assay: pull-down

Substance | binding
Mycobacterium tuberculosis Csm3 (Cas7) D35A (from UniProt P9WJF9) | binds
Mycobacterium tuberculosis Csm3 (Cas7) (from UniProt P9WJF9) | binds
Mycobacterium canettii Csm2 (Cas11) | binds
